Values joined by “and” are separate entries in the source; they are usually repeats but may differ in a detail not shown here. Equal entries are not always repeated. This list was built around the results that the source calls inconclusive (neither active nor inactive); the mix of calls is not that of the screen. Where the call is inconclusive, the potency comes from a doubtful curve fit. A structure can be active in one record and inactive in another. Active and inactive are the calls of the source. Rule for the calls: active = hit-call score of the fitted dose curve at least 0.9, where 1 is the maximum; inconclusive = response in the unintended direction; inactive = score below 0.9.
Biological target: Bile acid receptor (Homo sapiens) (UniProt Q96RI1)
Assay: ATG_FXR_TRANS: Attagene TRANS-FACTORIAL HepG2 Assay for Farnesoid X Receptor (FXR) (AID 2282979);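 note: hits raise reporter mRNA above DMSO so AC50 marks FXR activation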
Details: HepG2 Attagene TRANS FXR-GAL4 reporter transcription
Procedure: ATG_TRANS is a cell-based, multiplexed-readout assay that uses HepG2, a human liver cell line, with measurements taken at 24 hours after chemical dosing in a 24-well plate.ATG_FXR_TRANS is one of 30 assay component(s) measured or calculated from the ATG_TRANS assay. It is designed to make measurements of mRNA induction, a form of inducible reporter, as detected with fluorescence intensity signals by Reverse transcription polymerase chain reaction (RT-PCR) and Capillary electrophoresis technology.Data from the assay component ATG_FXR_TRANS was analyzed into 1 assay endpoint. This assay endpoint, ATG_FXR_TRANS, was analyzed in the positive analysis fitting direction relative to DMSO as the negative control and baseline of activity. Using a type of inducible reporter, measures of mRNA for gain-of-signal activity can be used to understand the reporter gene at the transcription factor-level as they relate to the gene NR1H4. Furthermore, this assay endpoint can be referred to as a primary readout, because this assay has produced multiple assay endpoints where this one serves a reporter gene function. To generalize the intended target to other relatable targets, this assay endpoint is annotated to the nuclear receptor intended target family, where the subfamily is non-steroidal.
Human liver HepG2 cells are transiently transfected with multiple reporter transcription units (MRTUs) in 6-well plates using FuGene 6 reagent (Roche; 3 ml FuGene/1 mg DNA). The MRTU constructs are regulated by a cis-regulating element (promoter). […] A major difference between the CIS and TRANS system is that in CIS activities of endogenous TFs are measured, whereas the TRANS assay evaluates changes in activities of exogenous, chimeric NR-Gal4 proteins. […] At the end of 24 hour incubation, total RNA was isolated using TriZol reagent (Invitrogen). The isolated RNA is then reverse-transcribed using oligo(dT) primer and Mo-MLV reverse transcriptase (Invitrogen) with DNAse I (Ambion) treatment for 30 min. The one-tenth of the produced cDNA was amplified by PCR using Taq DNA polymerase (Invitrogen) and two reporter sequence-specific primers. The PCR products were fluorescently labeled by primer extension with 6-arboxyfluorescein (6-FAM) 5'-labeled reporter sequence-specific primer (2 min at 95 C, 20 s at 68 C and 10 min at 72 C) and these products were digested with 5U of HpaI (New England Biolabs) for 2h at 37 C. The fragments were purified using Qiaquick PCR columns (Qiagen), analyzed on an ABI 3130xL genetic analyzer (Applied Biosystems) with peak positions identified by using a set of X-rhodamine (ROX)-labeled MapMarker1000 molecular weight standards (BioVentures). The raw capillary electrophoresis data was processed using Attagraph software (Attagene).

Chains of the proteins cited; added tags and fusions are not shown. Lines headed by an entry give the natural chain unless they say otherwise; changes in a name come on top.
UniProt Q96RI1: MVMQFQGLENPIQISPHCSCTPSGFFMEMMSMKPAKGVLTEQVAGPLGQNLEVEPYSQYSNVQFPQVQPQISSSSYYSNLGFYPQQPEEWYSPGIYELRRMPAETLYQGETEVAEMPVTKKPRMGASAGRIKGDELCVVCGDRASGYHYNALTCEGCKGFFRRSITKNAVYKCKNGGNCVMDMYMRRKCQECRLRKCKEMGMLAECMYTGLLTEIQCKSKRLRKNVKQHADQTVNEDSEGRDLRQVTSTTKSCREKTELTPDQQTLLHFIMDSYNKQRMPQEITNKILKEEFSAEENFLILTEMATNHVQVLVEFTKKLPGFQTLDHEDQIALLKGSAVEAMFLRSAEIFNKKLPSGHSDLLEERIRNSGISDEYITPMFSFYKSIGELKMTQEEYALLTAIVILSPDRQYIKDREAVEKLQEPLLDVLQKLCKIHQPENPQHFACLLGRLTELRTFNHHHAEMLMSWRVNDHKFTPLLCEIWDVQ

SMILES | AC50 | outcome
CC(C)C(=O)C(C)C | inconclusive: 100 µM | –
COC(OC(C)=O)c1ccccc1 (stereo not given) | inconclusive: 100 µM | –
NCCCN1CCOCC1 | inconclusive: 25.9 µM | –
CN(C[C@@H](CC[N+]12CCC(C3CCCCC3)(CC1)CC2)c1ccc(Cl)c(Cl)c1)C(=O)c1cc(C(F)(F)F)cc(C(F)(F)F)c1 | inconclusive: 0.191 µM | –
Nc1ccc(Oc2cccc(Oc3ccc(N)cc3)c2)cc1 | inconclusive: 167 µM | –
O=c1c(-c2ccc(O)cc2)coc2cc(O)ccc12 | inconclusive: 25 µM | inactive
CCOc1nc(F)cc2nc(S(=O)(=O)Nc3c(Cl)cccc3C(=O)OC)nn12 | – | inactive
Nc1cc(Cl)c(N)c(Cl)c1 | – | inactive
COCCOCCC[Si](C)(O[Si](C)(C)C)O[Si](C)(C)C | – | inactive
COc1ccc(C#N)cc1 | inconclusive: 100 µM | –
Clc1nc(C(Cl)(Cl)Cl)c(Cl)c(Cl)c1Cl | inconclusive: 0.603 µM | –
O=C1C=CC(=O)N1c1ccccc1 | inconclusive: 100 µM | –

SMILES | AC50 | outcome
COc1cc(C)ccc1C(C)C | inconclusive: 100 µM | –
CC(CCC(=O)O)(c1ccc(O)cc1)c1ccc(O)cc1 | inconclusive: 100 µM | –
N=C1C=CC(=C(c2ccc(N)cc2)c2ccc(N)cc2)C=C1 | inconclusive: 182 µM | –
OC1CCC(C2CCCCC2)CC1 (stereo not given) | – | inactive
O=S(=O)(O)C(F)(F)C(F)(F)C(F)(F)C(F)(F)C(F)(F)C(F)(F)C(F)(F)C(F)(F)C(F)(F)C(F)(F)F | – | inactive
CC1OC(=O)C(C)OC1=O (stereo not given) | inconclusive: 100 µM | –
FC(F)(Br)C(F)(F)C(F)(F)C(F)(F)C(F)(F)C(F)(F)Br | – | inactive
Cn1ccnc1 | – | inactive
O=C1C=CC(=O)O1 | – | inactive
O=C(CC(=O)C(F)(F)C(F)(F)C(F)(F)F)c1cccs1 | – | inactive
O=P(O)(O)CCC(F)(F)C(F)(F)C(F)(F)C(F)(F)C(F)(F)C(F)(F)C(F)(F)C(F)(F)F | inconclusive: 150 µM | –
O=C(O)C=C(C(F)(F)F)C(F)(F)F | inconclusive: 150 µM | inactive
CCCCOCCOC(=O)COc1nc(Cl)c(Cl)cc1Cl | inconclusive: 1.8 µM | –

Record cards, as listed above. Order of values: AC50	outcome
CC1OC(=O)C(C)OC1=O (stereo not given) is listed with inconclusive: 100 µM	–
N=C1C=CC(=C(c2ccc(N)cc2)c2ccc(N)cc2)C=C1 is listed with inconclusive: 182 µM	–

Source: PubChem BioAssay (EPA / NIEHS)
